The assay in a line: qHTS Assay to Find Inhibitors of Chronic Active B-Cell Receptor Signaling. The settings on record: ABC-DLBCL IkBa-CBG/CBR reporter, luminescence ratio (green luciferase fused to IkBa over red control in TMD8 lymphoma cells), 4 h. In outline:
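Compounds up to 46 uM were incubated four hours with TMD8 cells whose green CBG68 luciferase is fused to IkappaBalpha; red CBR luminescence normalised the signal, and concentration-effect curves were fitted to fusion, red and ratio data.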
(In general: Quantitative high-throughput screening tests each substance at several concentrations.)

The mark [1] stands for this setting: measured here: CBR red luminescence, cell number.
Where [2] appears, read: measured here: IkBa-CBG green luminescence.

Some of the results follow. Further columns of the screen follow, without active or inactive calls. Compounds called inactive in the main read-out are mostly missing here. Words in brackets tell the shape of the fitted curve; partial curves, single points and poor fits give uncertain potencies.

One may read the AC50 as the concentration at which the activity in the assay is half-maximal. With `C1=C(c2cc3ccccc3cn2)CCCC1`, under setting [1], the AC50 was 0.731 µM [rising, full curve].

As to `Cc1ccc(S(=O)(=O)NCCN2CCOCC2)c(C)c1C`, the AC50 under setting [1] is 12.6 µM [rising, partial curve].

As to `Cc1cccc(/C=N/Nc2ccc3ccccc3n2)c1`, under setting [1], the AC50 was 11.2 µM [falling, partial curve].

As for `CN(C(=O)CC(NC(=O)c1ccccc1)(c1ccccc1)c1ccccc1)c1ccccc1`, the AC50 under setting [1] is 22.4 µM [falling, single point].

With `Cc1ccc(OCC(=O)NCCC2=CCCCC2)cc1`, the AC50 under setting [1] is 9.2 µM [rising, partial curve, poor fit].

As for `Cc1c(C(=O)N2CCCCC2C)sc2ncnc(N3CCc4ccccc4C3)c12` (centres undefined), the AC50 under setting [1] is 11.2 µM [falling, partial curve, poor fit].

`CCCCn1c(N)c(N(CC(C)C)C(=O)CN2C(=O)C3CCCCC3C2=O)c(=O)[nH]c1=O` (centres undefined): under setting [1], the AC50 was 23.1 µM [falling, single point].

On to `COc1ccc(/C=C/C(=O)c2ccc(NC(=O)c3cccs3)cc2)cc1OC`, for which, under setting [1], the AC50 was 16.4 µM [falling, single point].

With `Cc1ccc(S(=O)(=O)Nc2ccc(-n3c(C)nc4ccccc4c3=O)cc2)cc1`, the AC50 reads like this: under setting [1], 6.51 µM [rising, single point]; under setting [2], 7.31 µM [falling, partial curve, poor fit].

On to `CCOC(=O)c1c(C)[nH]c(C(=O)OCCOc2ccccc2C)c1C`, for which, under setting [1], the AC50 was 6.51 µM [rising, partial curve].

For the compound `CCC(C)C(=O)Nc1cc(C(=O)OC)ccc1C(=O)OC` (centres undefined), the AC50 under setting [1] was 7.31 µM [falling, partial curve, poor fit].

Take `COc1cccc(-n2nc(C#N)c(Cl)cc2=O)c1`: the AC50 reads like this: under setting [1], 3.55 µM [falling, partial curve, poor fit]; under setting [2], 14.1 µM [rising, partial curve, poor fit].

With `CCOC1Cc2ccccc2N(C(N)=O)c2ccccc21` (centres undefined), under setting [1], the concentration at half-maximal activity (AC50) was 4.11 µM [falling, single point].

As for `Cc1ccc(NC(=O)CN(C)C(=O)CSc2nnc(NC(C)C)s2)cc1`, the concentration at half-maximal activity (AC50) under setting [1] was 29.1 µM [falling, single point].

Consider `N#Cc1c(SCc2cccc(Cl)c2)sc(C(=O)c2ccccc2)c1N`, for which, under setting [1], the half-maximal activity concentration (AC50) is 0.92 µM [rising, full curve, poor fit].

`CCOc1ccc2c(c1)-c1c(ssc1=S)C(C)(C)N2C(=O)CSC1=NCCS1`: the AC50 under setting [1] was 29.1 µM [falling, single point].

Regarding `CC(C)[C@H](NS(=O)(=O)c1ccccc1)C(=O)OCC(=O)N1N=C(c2ccc(Cl)cc2)CC1c1ccco1` (some centres undefined), under setting [1], the AC50 is 23.1 µM [rising, partial curve, poor fit].

With `Nc1ccccc1C(=O)/C=C/c1ccc2c(c1)OCO2`, the AC50 under setting [1] is 20.6 µM [falling, single point].

As to `O=C(Nc1ccc(F)c(F)c1)c1ccc2c(c1)OCO2`, the AC50 under setting [1] was 10 µM [falling, partial curve].

For the compound `Fc1ccc(-n2ncc3c(NCCCN4CCOCC4)ncnc32)cc1`, the AC50 under setting [1] is 4.47 µM [falling, partial curve, poor fit].

As for `COc1ccc(N2CCN(C(=O)c3cccc(N4C(=O)C5CC=CC(C)C5C4=O)c3)CC2)cc1` (centres undefined), the AC50 under setting [1] was 20 µM [falling, partial curve, poor fit].

Take `Cc1ccc(C(=O)Nc2ccc(S(=O)(=O)N3CCOCC3)cc2)cc1C`: the AC50 under setting [1] was 3.55 µM [rising, single point].

In the case of `Cc1nn2c(c1-c1ccccc1)N=C(c1ccco1)CC2c1ccccc1` (centres undefined), under setting [1], the AC50 is 8.2 µM [falling, partial curve].

For the compound `Cc1c(Cl)cccc1NC(=S)NN1CCOCC1`, the AC50 under setting [1] was 20.6 µM [falling, single point].

In the case of `C1=C2C[N+]3(CCCC3)CC2Cc2ccc3ccccc3c21` (centres undefined), the AC50 under setting [1] is 0.517 µM [falling, partial curve, poor fit].

In the case of `O=C(N/N=C/c1c(Cl)nc2ccccn2c1=O)c1cccnc1`, the AC50 is, setting by setting: under setting [1], 3.55 µM [falling, partial curve]; under setting [2], 12.6 µM [rising, partial curve, poor fit].

`Cc1cc(C(=O)CN2C(=O)c3ccccc3C2=O)c(C)n1Cc1cccs1`: the AC50 under setting [1] is 2.91 µM [rising, partial curve].

Consider `Fc1ccc(NC(=S)Nc2cc(-c3ccccc3)[nH]n2)cc1Cl`, for which the AC50 under setting [1] is 17.8 µM [falling, single point].

For the compound `O=C(CCCOc1ccccc1)NC(=S)Nc1ccccc1`, the AC50 under setting [1] is 1 µM [falling, full curve, poor fit].

Take `CCOC(=O)c1nc2ccccc2s1`: the AC50 under setting [1] is 0.501 µM [rising, full curve, poor fit].

`O=C(c1ccccc1)n1ccc(-c2cnc(-c3ccccc3)s2)n1`: the AC50 under setting [1] was 7.31 µM [falling, partial curve, poor fit].

In the case of `CC(NCc1ccc([N+](=O)[O-])cc1)C1COc2ccccc2O1` (centres undefined), the AC50 under setting [1] is 12.6 µM [rising, single point].

Take `Cc1cc(C)nc(SCC(=O)N/N=C\C(Br)=C\c2ccccc2)n1`: the AC50 under setting [1] was 13 µM [rising, single point].

For `CC(=O)NCCc1nc2ccccc2n1CCOc1cccc(C)c1`, the AC50 under setting [1] was 2.82 µM [rising, partial curve].

`O=C(c1cc(COc2c(F)cccc2F)on1)N1CCSCC1`: under setting [1], the half-maximal activity concentration (AC50) was 1 µM [rising, partial curve].

On to `O=c1oc(CCCO)cc2ccc(C#Cc3ccsc3)cc12`, for which the AC50 under setting [1] is 1.84 µM [rising, partial curve].

For the compound `CN1/C(=C\C=N\NC(=O)c2cccnc2)C(C)(C)c2ccccc21`, the AC50 under setting [1] was 35.5 µM [falling, single point].

Consider `COc1c(Br)cc(Br)cc1C(=O)O`, for which the AC50 under setting [1] was 5.8 µM [falling, partial curve, poor fit].

Turning to `CCc1ccc(OC(C)C(=O)Nc2ccc(S(=O)(=O)Nc3nccs3)cc2)cc1` (centres undefined), under setting [1], the AC50 was 3.98 µM [falling, full curve, poor fit].

`Cc1ccc(S(=O)(=O)c2c(N)n(NC(=O)c3ccccc3C)c3nc4ccccc4nc23)cc1`: the AC50 under setting [1] was 20.6 µM [falling, partial curve, poor fit].

With `c1cnc(SCCCOc2ccc3ccccc3c2)nc1`, under setting [1], the AC50 is 1.3 µM [rising, full curve].

For the origin of these results see PubChem BioAssay AID493014 (National Center for Advancing Translational Sciences (NCATS), 2011).
